Source: paper PMC11829042, “Proteasomes accumulate in the plant apoplast where they participate in microbe-associated molecular pattern (MAMP)-triggered pathogen defense” (Nature Communications, 2025)
No constants are given. Whether binding was seen depends on the method and setting. In cells and extracts the contact can be indirect. Some binding calls cover weakened binding; strength is not graded here. Where a sequence is shown, tags or fusion partners need not be part of it.

Biological target: T1, PAG1(α7) CP subunit bearing a C-terminal FLAG tag (Arabidopsis thaliana) (UniProt O23715)
T1 sequence: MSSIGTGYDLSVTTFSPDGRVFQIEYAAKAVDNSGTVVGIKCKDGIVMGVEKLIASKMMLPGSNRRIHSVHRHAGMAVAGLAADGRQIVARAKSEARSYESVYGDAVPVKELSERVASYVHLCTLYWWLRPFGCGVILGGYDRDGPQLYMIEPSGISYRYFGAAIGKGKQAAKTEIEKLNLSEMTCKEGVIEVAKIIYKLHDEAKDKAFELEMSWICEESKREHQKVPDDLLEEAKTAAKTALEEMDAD
Test: co-IP; immune-depletion: resuspended APFp from PAG1-FLAG pag1-1 leaves applied three times to anti-FLAG M2 resin at 4 °C in buffer A (50 mM HEPES pH 7.5, 50 mM NaCl, 10% glycerol, 10 mM MgCl2, 20 mM ATP, 2 mM PMSF, 0.6% Na2S2O5); APFp, supernatant and immunoprecipitated fractions immunoblotted

binding: binds
B1: PBA1(β1) CP subunit (protein, UniProt Q8LD27 13-233)
chain: TTIIGVTYNGGVVLGADSRTSTGMYVANRASDKITQLTDNVYVCRSGSAADSQVVSDYVRYFLHQHTIQHGQPATVKVSANLIRMLAYNNKNMLQTGLIVGGWDKYEGGKIYGIPLGGTVVEQPFAIGGSGSSYLYGFFDQAWKDNMTKEEAEQLVVKAVSLAIARDGASGGVVRTVIINSEGVTRNFYPGDKLQLWHEELEPQNSLLDILNAAGPEPMAM
